Data taken from PMC7491322.

Protein sequences, listed by entry. Tags and fused reporters are not part of them.
UniProt Q9Y7M4: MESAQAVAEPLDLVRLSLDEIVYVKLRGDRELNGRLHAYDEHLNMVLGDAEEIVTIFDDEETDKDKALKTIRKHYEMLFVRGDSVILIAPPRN

Biological target: S. pombe Lsm3 (S. pombe) (UniProt Q9Y7M4)
Experiment: co-purification (affinity and anion-exchange chromatography, chains confirmed by electrospray mass spectrometry); wild-type Lsm1–7 coexpressed in E. coli; IMAC, glutathione agarose (GST on Lsm3), TEV protease, HiTrapQ

Binder	binding
S. pombe Lsm1 (protein, UniProt P87173 1-140) MNQATQIIPFTTSGSLVDYVDRKVIVVLRDGKKLIGILRSFDQFANLMLQYTIERIYVDDMYGDIDRGVYIVRGENVVLLGELDLDKEYDAVKQLRRMPAEELYPLAKLHEEEKKKNIREKGKYLHSVGFSVDGGHDDLY	binds
S. pombe Lsm4 (protein, UniProt O14352 1-121) MLPLTLLNATQGRPILVELKNGETFNGHLENCDNYMNLTLREVIRTMPDGDKFFRLPECYIRGNNIKYLRIQDEVLSQVAKQQAQQRENRGSRFRGRGQRGRGNYGHTAPNRRGRGRGGHM	binds

No constants are given. Whether binding was seen depends on the method and setting. In cells and extracts the contact can be indirect. These calls come from enrichment with a bait or labelling near it, and not all partners need be listed.
